Reference: the supplement of paper PMC7858590
± gives the standard deviation of the averaged measurements. Some of the results follow. This data set is noisy: repeats of one test often differ as much as different tests do.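 Macrophages came from blood monocytes pooled from four healthy donors and grown with M-CSF; these M1-like cells were treated with compounds that had pushed resting macrophages toward the M2-like state in a first-round screen. The Z-score is a t-test comparing cell eccentricity (about 1000 cells per well) with same-row DMSO wells; a compound counts as reprogramming when it passes the M2 cutoff of +6 set by standard cytokine controls (the M1 cutoff is −4).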 Residues, ends and D or L forms follow the SMILES beside them. *: point of attachment. Cbz = O=C(OCc1ccccc1)*

Test system: human monocyte-derived macrophages (polarized)
Assay: cell shape (eccentricity) Z-score vs DMSO control; macrophage state: M1-polarized (IFNg + TNFa), cytokines removed before treatment; higher = more elongated, M2-like morphology
Conditions: 24 h

Compound	cell shape (Z-score) (5 µM)	cell shape (Z-score) (10 µM)
O=C(O)c1ccc2c(c1)nc(Nc1cccc(Cl)c1)c1ccncc12	2.83 ± 3.9	3.03 ± 6
COc1cc2ncnc(Nc3ccc(F)c(Cl)c3)c2cc1OCCCN1CCOCC1	0.996 ± 1.8	-5.18 ± 2.3
CNC(=O)c1cc(Oc2ccc(NC(=O)Nc3ccc(Cl)c(C(F)(F)F)c3)cc2)ccn1	9.88	13.6
C=CC(=O)N1CCC[C@@H](n2nc(-c3ccc(Oc4ccccc4)cc3)c3c(N)ncnc32)C1	6.79 ± 3.9	4.39 ± 2.2
CCOc1cc2ncc(C#N)c(Nc3ccc(OCc4ccccn4)c(Cl)c3)c2cc1NC(=O)/C=C/CN(C)C	0.735 ± 3.2	-0.744 ± 3
COc1cc(Nc2ncc(F)c(Nc3ccc4c(n3)NC(=O)C(C)(C)O4)n2)cc(OC)c1OC	3.5 ± 9.6	1 ± 4.6
C[C@@H](Oc1cc(-c2cnn(C3CCNCC3)c2)cnc1N)c1c(Cl)ccc(F)c1Cl	2.65 ± 0.39	-2.06 ± 2.3
COc1ccc2oc(-c3ccccc3OC)cc(=O)c2c1	6.44	7.48
O=c1cc(-c2ccc(O)cc2)oc2cc(O)cc(O)c12	1.09 ± 6.2	-0.12 ± 4.2
O=C(OC1C=C(CO)C2C(OC3OC(CO)C(O)C(O)C3O)OC=CC12O)c1ccc(O)cc1 (configuration not stated)	1.02 ± 0.79	1.05 ± 0.75
Oc1cccc(-c2nc(N3CCOCC3)c3oc4ncccc4c3n2)c1	-0.734 ± 3.4	-3.69 ± 2.3
CC1=C(/C=C/C(C)=C/C=C/C(C)=C/CO)C(C)(C)CCC1	-8.23 ± 12	-5.65 ± 13
O=S(=O)(c1cccc2cnccc12)N1CCCNCC1	3.35 ± 5.1	0.727 ± 0.12
Cc1ccc(C(=O)Nc2ccc(S(=O)(=O)O)c3cc(S(=O)(=O)O)cc(S(=O)(=O)O)c23)cc1NC(=O)c1cccc(NC(=O)Nc2cccc(C(=O)Nc3cc(C(=O)Nc4ccc(S(=O)(=O)O)c5cc(S(=O)(=O)O)cc(S(=O)(=O)O)c45)ccc3C)c2)c1	2.07 ± 8	-6.39 ± 8.2
C=C1C(=O)O[C@H]2C3=C(C)C[C@H](OC(C)=O)C[C@]3(C)CC[C@@H]12	1.79 ± 7.5	-2 ± 3.2
Cc1ccc(S(=O)(=O)OCC(=O)Nc2ccc(C(=O)O)c(O)c2)cc1	3.57 ± 11	3.87 ± 8.3
CC(C)(C)c1nc(-c2cccc(NS(=O)(=O)c3c(F)cccc3F)c2F)c(-c2ccnc(N)n2)s1	-2.82 ± 4.9	-4.2 ± 6
CCN(CC)C(=S)SSC(=S)N(CC)CC	-0.518 ± 3.6	-4.11 ± 0.88
COc1cc2nccc(Oc3ccc(NC(=O)Nc4cc(C)on4)c(Cl)c3)c2cc1OC	8.31 ± 7	9.45 ± 6
Cc1onc(-c2ccccc2Cl)c1C(=O)N[C@@H]1C(=O)N2[C@@H]1SC(C)(C)[C@@H]2C(=O)O	3.93 ± 7.2	-1.2 ± 3.9
Cc1onc(-c2ccccc2)c1-c1ccc(S(N)(=O)=O)cc1	2.54 ± 1.5	-1.11 ± 5.8

Compound	cell shape (Z-score) (5 µM)	cell shape (Z-score) (10 µM)
C(=N\NC1=NCCN1)/c1c2ccccc2c(/C=N/NC2=NCCN2)c2ccccc12	11.6	10.7 ± 2.7
COc1ccc(OC)c(-c2nnc3n2N=C(c2ccc(OC)c(OC)c2)CS3)c1	-2.41 ± 1.9	-3.05 ± 2.3
CC1C(=O)C(=O)[C@@H]2O[C@@H]2C1=O (some centres not stated)	-0.105 ± 2.1	-2.64 ± 2.1
COc1ccc(-c2oc3ccccc3c(=O)c2O)cc1OC	0.0634 ± 2	2.59 ± 6.6
Nc1nc(Nc2ccc3c(c2)CCC(N2CCCC2)CC3)nn1-c1cc2c(nn1)-c1ccccc1CCC2 (configuration not stated)	-5.28 ± 1.4	-8.11 ± 5.4
CCCC(=O)Nc1ncnc2c1ncn2[C@@H]1O[C@@H]2COP(=O)(O)O[C@H]2[C@H]1OC(=O)CCC	-2.43 ± 3.8	-9.02 ± 6.3
CC(C)(C)n1nc(-c2cccc3ccccc23)c2c(N)ncnc21	9.16 ± 8.2	10.6 ± 4.4
Nc1nc(N)c2nc(-c3cccc(O)c3)c(-c3cccc(O)c3)nc2n1	-0.796 ± 2.9	-0.169 ± 5.1
CC1(C)C[C@@H]1C(=O)N/C(=C\CCCCSC[C@H](N)C(=O)O)C(=O)O	0.938 ± 5.7	-5.72 ± 4
NC(N)=NCCNS(=O)(=O)c1cccc2cnccc12	-0.298 ± 5.5	1.37 ± 3.3
Cn1c2ccccc2c2c3c(c4c5ccccc5n(CCC#N)c4c21)CNC3=O	2.8 ± 2.1	1.31 ± 0.5
Cn1cc(C2=C(c3cn(CCCSC(=N)N)c4ccccc34)C(=O)NC2=O)c2ccccc21	-4.55 ± 2.7	-3.2 ± 1.3
O=C1c2ccccc2-c2n[nH]c3cccc1c23	3.32 ± 9.1	0.0957 ± 10
Cc1c(-c2ccnc(Nc3ccc(N4CCNCC4)cc3)n2)sc(=O)n1C	-4.59 ± 2.1	-1.64 ± 3.1
COc1ccc(N(C(=O)c2ccccc2)S(=O)(=O)c2cc(OC)ccc2OC)cc1	-2.29 ± 1.1	2.03 ± 3.9
CC(C)C[C@@H](C=O)NC(=O)[C@H](CC(C)C)NC(=O)[C@H](CC(C)C)NC(=O)OCc1ccccc1 (Cbz-Leu-Leu-Leu-aldehyde)	-3.95 ± 3.8	-4.6 ± 6.9
C[C@H]1[C@H](NC(=O)/C(=N\OC(C)(C)C(=O)O)c2csc(N)n2)C(=O)N1S(=O)(=O)O	-2.56 ± 6.3	-9.48 ± 7.7
COc1c(OC)c2occc2c2oc(=O)ccc12	1.95 ± 0.061	1.3 ± 0.55
CC(NCCC(c1ccccc1)c1ccccc1)c1ccccc1 (configuration not stated)	2.18 ± 7	-4.72 ± 5.3
CC(C)C[C@H](NC(=O)CNC(=O)c1cc(Cl)ccc1Cl)B(O)O	8.83	6.76

Entries of single compounds from above. Order of values: cell shape (Z-score) (5 µM)	cell shape (Z-score) (10 µM)
COc1c(OC)c2occc2c2oc(=O)ccc12 is entered as 1.95 ± 0.061	1.3 ± 0.55
Cn1cc(C2=C(c3cn(CCCSC(=N)N)c4ccccc34)C(=O)NC2=O)c2ccccc21 is entered as -4.55 ± 2.7	-3.2 ± 1.3
